This assay has as its system BDF1 mice, colon carcinoma 38 sc, T/C %. Nature of the assay: NCI In Vivo Anticancer Drug Screen. Data for tumor model Colon Carcinoma 38 (subcutaneous) in B6D2F1 (BDF1) mice. The settings on record: for T/C: evaluated on day 20. Put shortly:
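T/C readout: treated group (T) measurement over vehicle control group (C) measurement. Endpoint is survival or tumor size in mice bearing a transplanted tumor.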

Setting [1] is: T/C endpoint: median tumor weight (est.), dose: 800.0 mg/kg/injection, schedule: Q07DX002 (ip), vehicle: saline with Tween-80, higher T/C = larger tumour.
Setting [2] is: T/C endpoint: median tumor weight (est.), dose: 400.0 mg/kg/injection, schedule: Q07DX002 (ip), vehicle: saline, higher T/C = larger tumour.
The mark [3] stands for this setting: T/C endpoint: median tumor weight (est.), dose: 400.0 mg/kg/injection, schedule: Q07DX002 (ip), vehicle: saline with Tween-80, higher T/C = larger tumour.
[4] abbreviates: T/C endpoint: median tumor weight (est.), dose: 200.0 mg/kg/injection, schedule: Q07DX002 (ip), vehicle: saline, higher T/C = larger tumour.
[5] abbreviates: T/C endpoint: median tumor weight (est.), dose: 50.0 mg/kg/injection, schedule: Q07DX002 (ip), vehicle: saline with Tween-80, higher T/C = larger tumour.
The mark [6] stands for this setting: T/C endpoint: median tumor weight (est.), dose: 100.0 mg/kg/injection, schedule: Q07DX002 (ip), vehicle: saline with Tween-80, higher T/C = larger tumour.
Setting [7] is: T/C endpoint: median tumor weight (est.), dose: 200.0 mg/kg/injection, schedule: Q07DX002 (ip), vehicle: saline with Tween-80, higher T/C = larger tumour.
Setting [8] is: T/C endpoint: median tumor weight (est.), dose: 25.0 mg/kg/injection, schedule: Q07DX002 (ip), vehicle: saline with Tween-80, higher T/C = larger tumour.

The list is a part of this screen's results and no random one: it is rich in T/C values a quarter to a half above the control, in often repeated tests (any T/C) and in doses without a T/C. Other doses and runs of a compound stand elsewhere. T/C is the treated group as % of the vehicle group. Schedules are NCI's codes, taken here to give the interval after Q, in days (D) or hours (H), and the number of doses after X. Some T/C values are followed by the survivors on the day toxicity was checked, most often the fifth; where none is given, no animal had died by that day. Some doses have a count of surviving animals in place of a T/C: the source files T/C as zero there, which appears to mark a toxic dose or a test without result, not a measured value. Counts of survivors are from the toxicity check (mostly the fifth day) where no day follows; animals may have died later. Some doses were run more than once; their values stand side by side, smallest first.

Consider `CC12C(=O)C=CCC1=CCC1C2CCC2(O)C(=O)OC3(C)C4CC5(C)C(COC16OC23C5C6=O)C(=O)O4` (configuration not stated), for which, under “T/C endpoint: median tumor weight (est.), dose: 200.0 mg/kg/injection, schedule: Q07DX002 (ip), vehicle: Klucel (hydroxypropylcellulose) (HPC), higher T/C = larger tumour”, the T/C was 128 % of control. For the setting “T/C endpoint: median tumor weight (est.), dose: 800.0 mg/kg/injection, schedule: Q07DX002 (ip), vehicle: Klucel (hydroxypropylcellulose) (HPC), higher T/C = larger tumour”, the survivor count was 2 of 10 on day 20.
Regarding `NC1CCCCC1N.O=C1C=CC(=C(c2ccc(O)cc2)c2ccccc2S(=O)(=O)[O-])C=C1.O=[N+]([O-])[O-].[Pt+4]`, the survivor count (T/C endpoint: median tumor weight (est.), dose: 25.0 mg/kg/injection, schedule: Q07DX002 (ip), vehicle: saline, higher T/C = larger tumour) was 0 of 10 on day 20 and 1 of 10 on day 20.
Take `COc1ccc(-c2csc(=[N+]3CCCCC3)s2)cc1`: the survivor count (T/C endpoint: median tumor weight (est.), dose: 100.0 mg/kg/injection, schedule: Q07DX002 (ip), vehicle: water, higher T/C = larger tumour) is given as 0 of 10 on day 20.
On to `COC(=O)[C@@]12OC[C@]34[C@H]([C@@H](O)[C@@H]1O)[C@@]1(C)CC(=O)C(O)=C(C)[C@@H]1C[C@H]3OC(=O)[C@H](OC(=O)/C=C(\C)C(C)C)[C@@H]24`, for which the T/C (T/C endpoint: median tumor weight (est.), dose: 0.5 mg/kg/injection, schedule: Q07DX003 (ip), vehicle: other, higher T/C = larger tumour) was 129 % of control. The survivor count (T/C endpoint: median tumor weight (est.), dose: 4.0 mg/kg/injection, schedule: Q07DX003 (ip), vehicle: other, higher T/C = larger tumour) is recorded as 6 of 10.
Regarding `Nc1ccc2ccc(NS(=O)(=O)N3CCCCC3)cc2c1`, the survivor count under setting [1] is on record as 6 of 10 on day 20.
On to `COc1ccc(C[C@H](N)C(=O)NC2C(CO)OC(n3cnc4c(N(C)C)ncnc43)C2O)cc1` (some centres not stated), for which the survivor count was 6 of 10 on day 20 under setting [2]; 0 of 10 on day 20 and 1 of 10 on day 20 (T/C endpoint: median tumor weight (est.), dose: 768.0 mg/kg/injection, schedule: Q07DX002 (ip), vehicle: saline, higher T/C = larger tumour).
Turning to `C[Si](C)(C)O/C=C1\CCCCC1=O`, the survivor count under setting [3] is 2 of 10 on day 20 and 5 of 10 on day 20.
`CC(Cc1ccc(O)c(O)c1)C(C)Cc1ccc(O)c(O)c1` (configuration not stated): the T/C under setting [4] was 135 % of control [9 of 10 alive on day 20] and the T/C under setting [2] is 126 % of control [9 of 10 alive on day 20].
As to `NC(Cc1ccc(N(CCCl)CCCl)cc1)C(=O)O` (configuration not stated), the survivor count runs as follows: (T/C endpoint: median tumor weight (est.), dose: 16.0 mg/kg/injection, schedule: Q07DX002 (ip), vehicle: water, higher T/C = larger tumour) 5 of 10 on day 20; (T/C endpoint: median tumor weight (est.), dose: 32.0 mg/kg/injection, schedule: Q07DX002 (ip), vehicle: Klucel (hydroxypropylcellulose) (HPC), higher T/C = larger tumour) 0 of 10 on day 20; (T/C endpoint: median tumor weight (est.), dose: 32.0 mg/kg/injection, schedule: Q07DX002 (ip), vehicle: water, higher T/C = larger tumour) 1 of 10 on day 20.
Take `NC(=O)c1[nH]nc(C2OC(CO)C(O)C2O)c1O` (configuration not stated): the survivor count (T/C endpoint: median survival time, dose: 6.0 mg/kg/injection, schedule: Q04DX004 (ip), vehicle: saline, higher T/C = longer survival) is reported as 0 of 8 on day 93; the survivor count (T/C endpoint: median survival time, dose: 12.0 mg/kg/injection, schedule: Q04DX004 (ip), vehicle: saline, higher T/C = longer survival) is 0 of 8 on day 93; the survivor count (T/C endpoint: median tumor weight (est.), dose: 20.0 mg/kg/injection, schedule: Q07DX002 (ip), vehicle: saline, higher T/C = larger tumour) was 6 of 10 on day 20; the survivor count (T/C endpoint: median tumor weight (est.), dose: 40.0 mg/kg/injection, schedule: Q07DX002 (ip), vehicle: saline, higher T/C = larger tumour) is on record as 5 of 10 on day 20. Moreover, the T/C was 130 % of control (T/C endpoint: median tumor weight (est.), dose: 1.25 mg/kg/injection, schedule: Q07DX002 (ip), vehicle: saline, higher T/C = larger tumour); 141 % of control (T/C endpoint: median tumor weight (est.), dose: 2.5 mg/kg/injection, schedule: Q07DX002 (ip), vehicle: saline, higher T/C = larger tumour); 141 % of control (T/C endpoint: median tumor weight (est.), dose: 2.5 mg/kg/injection, schedule: Q07DX003 (ip), vehicle: saline, higher T/C = larger tumour).
For the compound `CC(=O)Oc1ccccc1O`, the T/C (T/C endpoint: median tumor weight (est.), dose: 25.0 mg/kg/injection, schedule: Q07DX002 (ip), vehicle: saline + Tween-80 + alcohol, higher T/C = larger tumour) was 128 % of control. Besides, the survivor count by setting is: (T/C endpoint: median tumor weight (est.), dose: 100.0 mg/kg/injection, schedule: Q07DX002 (ip), vehicle: saline + Tween-80 + alcohol, higher T/C = larger tumour) 3 of 10 on day 20; (T/C endpoint: median tumor weight (est.), dose: 200.0 mg/kg/injection, schedule: Q07DX002 (ip), vehicle: saline + Tween-80 + alcohol, higher T/C = larger tumour) 5 of 10 on day 20; (T/C endpoint: median tumor weight (est.), dose: 400.0 mg/kg/injection, schedule: Q07DX002 (ip), vehicle: saline + Tween-80 + alcohol, higher T/C = larger tumour) 0 of 10 on day 20.
For the compound `COC1C(OC(=O)/C=C/C=C/C=C/C=C/C(=O)O)CCC2(CO2)C1C1(C)OC1CC=C(C)C` (configuration not stated), for the setting “T/C endpoint: median tumor weight (est.), dose: 100.0 mg/kg/injection, schedule: Q07DX002 (ip), vehicle: suspension in saline, higher T/C = larger tumour”, the T/C is 125 % of control. Further, the survivor count runs as follows: under setting [2], 0 of 10 on day 20; (T/C endpoint: median tumor weight (est.), dose: 800.0 mg/kg/injection, schedule: Q07DX002 (ip), vehicle: saline, higher T/C = larger tumour) 0 of 10 on day 20.
In the case of `O=[N+]([O-])O.[Ga]`, the T/C (T/C endpoint: median tumor weight (est.), dose: 50.0 mg/kg/injection, schedule: Q07DX003 (ip), vehicle: saline, higher T/C = larger tumour) is 128 % of control [9 of 10 alive]. For the same compound, the survivor count reads like this: under setting [4], 6 of 10; (T/C endpoint: median tumor weight (est.), dose: 200.0 mg/kg/injection, schedule: Q07DX003 (ip), vehicle: saline, higher T/C = larger tumour) 5 of 10.
`COC(=O)Nc1cccc(-c2nc3ccc(NC(=O)OC)cc3c(=O)n2-c2ccccc2)c1`: the T/C (T/C endpoint: median tumor weight (est.), dose: 16.0 mg/kg/injection, schedule: Q07DX003 (ip), vehicle: Klucel (hydroxypropylcellulose) (HPC), higher T/C = larger tumour) is 140 % of control.
As for `CN1C(=O)C(=Cc2ccc(O)cc2)C(=O)N(C)C1=O`, the survivor count runs as follows: under setting [5], 3 of 10 on day 20; under setting [6], 6 of 10 on day 20; under setting [7], 2 of 10 on day 20; under setting [3], 0 of 10 on day 20.
Turning to `Clc1ccc2nnnn2n1`, the T/C reads like this: under setting [8], 145 % of control; under setting [5], 139 % of control [8 of 10 alive on day 20]; under setting [6], 125 % of control [8 of 10 alive on day 20]. For the same compound, the survivor count is on record as 5 of 10 on day 20 under setting [7], 5 of 10 on day 20 under setting [3] and 0 of 10 on day 20 under setting [1].
For `NS(=O)(=O)OCCCCCCCOS(N)(=O)=O`, the survivor count is, setting by setting: under setting [3], 0 of 10 on day 20 and 1 of 10 on day 20; under setting [1], 0 of 10 on day 20.
Turning to `O=C(O)CC(NC(=O)CP(=O)(O)O)C(=O)O` (configuration not stated), the T/C is, setting by setting: (T/C endpoint: median tumor weight (est.), dose: 25.0 mg/kg/injection, schedule: Q07DX003 (ip), vehicle: saline, higher T/C = larger tumour) 131 % of control; (T/C endpoint: median tumor weight (est.), dose: 100.0 mg/kg/injection, schedule: Q07DX003 (ip), vehicle: saline, higher T/C = larger tumour) 134 % of control. Besides, the survivor count is 5 of 10 (T/C endpoint: median tumor weight (est.), dose: 265.0 mg/kg/injection, schedule: Q01DX009 (ip), vehicle: saline, higher T/C = larger tumour) and 0 of 4 (T/C endpoint: median tumor weight (est.), dose: 833.0 mg/kg/injection, schedule: Q04DX004 (ip), vehicle: saline, higher T/C = larger tumour).
`Cc1cc2c(C(C)C)c(O)c(O)c(C=O)c2c(O)c1-c1c(C)cc2c(C(C)C)c(O)c(O)c(C=O)c2c1O`: the survivor count is 1 of 10 on day 20 under setting [8]; 0 of 10 on day 20 under setting [5]; 0 of 10 on day 20 under setting [6]; 0 of 10 on day 20 under setting [7]; 0 of 10 on day 20 under setting [3].
For `C=CS(C=C)=NS(=O)(=O)c1ccc(C)cc1`, the T/C (T/C endpoint: median tumor weight (est.), dose: 3.12 mg/kg/injection, schedule: Q07DX002 (ip), vehicle: Klucel (hydroxypropylcellulose) (HPC), higher T/C = larger tumour) is 126 % of control.
Consider `C=C(C)[C@H]1CN[C@H](C(=O)O)[C@H]1CC(=O)O`, for which the survivor count reads like this: (T/C endpoint: median tumor weight (est.), dose: 50.0 mg/kg/injection, schedule: Q07DX002 (ip), vehicle: saline, higher T/C = larger tumour) 3 of 10 on day 20; (T/C endpoint: median tumor weight (est.), dose: 100.0 mg/kg/injection, schedule: Q07DX002 (ip), vehicle: saline, higher T/C = larger tumour) 0 of 10 on day 20.
